Results on eight molecules are retold here after PMC11245307, “Evolutionary adaptation of an HP1-protein chromodomain integrates chromatin and DNA sequence signals” (eLife, 2024).

For assay [1], the target named is Rhino chromodomain, wildtype construct (Rhino residues 20-90) (D. melanogaster) (UniProt Q7JXA8). Kind of assay: SEC-MALS; about 400 μg purified protein (100 μl at 4 mg/ml) on Superdex75increase 10/300 GL; 20 mM Tris, pH 7.5, 150 mM NaCl; Wyatt Dawn Heleos-II; both purified. On the technique in general: Size exclusion chromatography separates by hydrodynamic size, large species first.

Assay [2] deals with Rhino chromodomain G31A (Rhino residues 20-90) (D. melanogaster) (UniProt Q7JXA8). Described as above.
Assay [3] deals with Rhino chromodomain W45A (Rhino residues 20-90) (D. melanogaster) (UniProt Q7JXA8). The assay is described as above.
The target of assay [4] is Rhino chromodomain Y24A (Rhino residues 20-90) (D. melanogaster) (UniProt Q7JXA8). The assay is described as above.
Assay [5] has as its target Rhino chromodomain G31D (Rhino residues 20-90) (D. melanogaster) (UniProt Q7JXA8). The assay is described as above.
Assay [6] deals with Rhino chromodomain F34A/F76A double mutant (Rhino residues 20-90) (D. melanogaster) (UniProt Q7JXA8). Described as above.
Assay [7] deals with T1, Rhino chromodomain F48A (Rhino residues 20-90) (D. melanogaster) (UniProt Q7JXA8).
T1 sequence: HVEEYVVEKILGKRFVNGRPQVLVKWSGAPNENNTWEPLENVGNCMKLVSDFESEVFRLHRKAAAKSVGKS
Described as above.

The target in assay [8] is T1, Rhino chromodomain F48A (Rhino residues 20-90) (D. melanogaster). Briefly: condition: peptide at approximately 1 mM, protein at 100 µM; ITC; chromodomain at 100 µM, H3K9me3 peptide at approximately 1 mM; 20 mM Tris, pH 8.0, 25 mM NaCl, 2 mM β-mercaptoethanol; 20°C; MicroCal iTC200, sixteen 2.5 µl injections; both purified.

Where a chain is given by its changes, count along the chain named. Numbers in names are those of the source. No constants are given. Whether binding was seen depends on the method and setting.

B1: Rhino chromodomain, wildtype construct (Rhino residues 20-90) (domain or fragment, UniProt Q7JXA8 20-90)
chain: T1 sequence with A29F
With B1, in assay [1], the binding result is given as “no binding (tested: 100 μl at 4 mg/ml)”.

B2: Rhino chromodomain G31A (Rhino residues 20-90) (domain or fragment, UniProt Q7JXA8 20-90)
chain: T1 sequence with G12A, A29F
As for B2, the binding entry in assay [2] was “no binding (tested: 100 μl at 4 mg/ml)”.

B3: Rhino chromodomain W45A (Rhino residues 20-90) (domain or fragment, UniProt Q7JXA8 20-90)
chain: T1 sequence with W26A, A29F
For the molecule B3, the binding result in assay [3] is recorded as “no binding (tested: 100 μl at 4 mg/ml)”.

B4: Rhino chromodomain Y24A (Rhino residues 20-90) (domain or fragment, UniProt Q7JXA8 20-90)
chain: T1 sequence with Y5A, A29F
With B4, the binding result in assay [4] is “no binding (tested: 100 μl at 4 mg/ml)”.

B5: Rhino chromodomain G31D (Rhino residues 20-90) (domain or fragment, UniProt Q7JXA8 20-90)
chain: T1 sequence with G12D, A29F
For the molecule B5, in assay [5], the binding entry is “no binding (tested: 100 μl at 4 mg/ml)”.

B6: Rhino chromodomain F34A/F76A double mutant (Rhino residues 20-90) (domain or fragment, UniProt Q7JXA8 20-90)
chain: T1 sequence with F15A, A29F, F57A
B6: in assay [6], the binding result is “no binding (tested: 100 μl at 4 mg/ml)”.

B7: Rhino chromodomain F48A (Rhino residues 20-90) (domain or fragment, UniProt Q7JXA8 20-90)
chain: T1 sequence
Consider B7, for which, in assay [7], the binding result is “no binding (tested: 100 μl at 4 mg/ml)”.
As to KQTARKSTGGK (trimethyl-lysine K[me3] at the sixth residue of the peptide (H3K9me3)) [H3K9me3 peptide (KQTAR-K[me3]-STGGK)], in assay [8], the binding entry is recorded as “no binding”.
